Test results as given in patent US9040671B2, “Methods for cancer management targeting Co-029” (Institut National de la Sante et de la Recherche Medicale …, priority 2010, dated 2015).
At least one structure is not confirmed: it was looked up by name or label, or the drawing left a doubt.

Tested on: Isreco cells
Test: 2D cell motility on collagen I by videomicroscopy, Isreco cell lines in general
Format: cell-based, human
Settings: sparse Isreco cells on collagen I

O=c1cc(N2CCOCC2)oc2c(-c3ccccc3)cccc12 [LY294002]
effect on motility, in words: complete blockade of motility
